Results deposited as PubChem BioAssay AID1259254 (NCATS, 2017)
Shown is an unselected part of about 59,000 deposited reagents. Of all reagents, about 1,550 (2.6%) got an active call. 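G2 share is only a proxy for re-replication; each gene was hit by three separate siRNAs, and active genes were retested.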 Reagents against one gene are numbered here. Further read-outs or replicates are left out here. The record does not give: the amount of reagent.

Aim: 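Genome-wide screen for genes that prevent DNA re-replication in cancer cells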 (primary screen)
Cell system: human HCT116 colorectal cancer cells
Reagent: single siRNA against human genes
Duration: 3 days
Measured: 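Nuclei stained with Hoechst and imaged; cell-cycle phase assigned by DNA content; G2 share scaled per plate, non-targeting siRNA 0%, GMNN siRNA 100%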
Reading the numbers: G2 robust z-score and G2 cells, % of GMNN control: higher = more G2 cells, more excess DNA replication
Call rule: 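Active siRNAs have a G2 robust z of 5 or more median absolute deviations over the median, which in these data means about 38% or higher of GMNN control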

AP2B1 #1 — G2 robust z-score = 0.0225; G2 cells, % of GMNN control = 3.13; Call = inactive
AP2B1 #2 — G2 robust z-score = -0.551; G2 cells, % of GMNN control = -0.908; Call = inactive
AP2B1 #3 — G2 robust z-score = 0.255; G2 cells, % of GMNN control = 4.76; Call = inactive
DSEL #1 — G2 robust z-score = -0.0556; G2 cells, % of GMNN control = 2.58; Call = inactive
DSEL #2 — G2 robust z-score = 0.182; G2 cells, % of GMNN control = 4.25; Call = inactive
DSEL #3 — G2 robust z-score = 0.956; G2 cells, % of GMNN control = 9.69; Call = inactive
DEXI #1 — G2 robust z-score = 0.113; G2 cells, % of GMNN control = 3.76; Call = inactive
DEXI #2 — G2 robust z-score = 2.59; G2 cells, % of GMNN control = 21.2; Call = inactive
DEXI #3 — G2 robust z-score = 8.61; G2 cells, % of GMNN control = 63.5; Call = active
FAM177B #1 — G2 robust z-score = 0.661; G2 cells, % of GMNN control = 7.62; Call = inactive
FAM177B #2 — G2 robust z-score = 0.749; G2 cells, % of GMNN control = 8.23; Call = inactive
FAM177B #3 — G2 robust z-score = 1.09; G2 cells, % of GMNN control = 10.7; Call = inactive

Hits (from the list above):
DEXI #3 — G2 robust z-score = 8.61; G2 cells, % of GMNN control = 63.5; Call = active
